The other results are listed elsewhere or left out.
Assays:
Assay in all cases: log2 fold change, soluble protein after heating vs DMSO (PISA); higher = thermal stabilisation; K562 lysate, 10 uM; active = over 0.2 and 3.5 SD of the protein, either way, in both replicates (recomputed)
erlotinib = compound: C#Cc1cccc(Nc2ncnc3cc(OCCOC)c(OCCOC)cc23)c1 [erlotinib]
Outline: (§1)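 The values are log-two fold changes in thermal stability compared with solvent controls and come from duplicates. They were obtained by TMTpro 16plex LC-MS/MS, with channel sums equalised, on the supernatant after 21,000xg for 90 min. That supernatant came from crude K562 extract at 1 mg/mL protein treated with 10 μM compound for 30 min, heated for 3 min across 48°C-58°C, pooled and brought to 0.5% NP-40 at 4°C.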

Chains of the proteins cited; added tags and fusions are not shown. Lines headed by an entry give the natural chain unless they say otherwise; changes in a name come on top.
UniProt Q9Y248: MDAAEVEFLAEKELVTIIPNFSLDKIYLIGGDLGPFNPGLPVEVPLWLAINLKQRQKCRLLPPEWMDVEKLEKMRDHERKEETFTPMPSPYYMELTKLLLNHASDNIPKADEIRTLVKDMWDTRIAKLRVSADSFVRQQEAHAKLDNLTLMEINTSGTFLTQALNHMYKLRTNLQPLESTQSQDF
UniProt Q14691: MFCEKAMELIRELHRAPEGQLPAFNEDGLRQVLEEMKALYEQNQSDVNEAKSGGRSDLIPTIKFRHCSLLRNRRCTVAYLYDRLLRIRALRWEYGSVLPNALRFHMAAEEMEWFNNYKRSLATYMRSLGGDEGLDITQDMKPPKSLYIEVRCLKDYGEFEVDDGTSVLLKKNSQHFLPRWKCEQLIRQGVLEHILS
UniProt Q5VW38: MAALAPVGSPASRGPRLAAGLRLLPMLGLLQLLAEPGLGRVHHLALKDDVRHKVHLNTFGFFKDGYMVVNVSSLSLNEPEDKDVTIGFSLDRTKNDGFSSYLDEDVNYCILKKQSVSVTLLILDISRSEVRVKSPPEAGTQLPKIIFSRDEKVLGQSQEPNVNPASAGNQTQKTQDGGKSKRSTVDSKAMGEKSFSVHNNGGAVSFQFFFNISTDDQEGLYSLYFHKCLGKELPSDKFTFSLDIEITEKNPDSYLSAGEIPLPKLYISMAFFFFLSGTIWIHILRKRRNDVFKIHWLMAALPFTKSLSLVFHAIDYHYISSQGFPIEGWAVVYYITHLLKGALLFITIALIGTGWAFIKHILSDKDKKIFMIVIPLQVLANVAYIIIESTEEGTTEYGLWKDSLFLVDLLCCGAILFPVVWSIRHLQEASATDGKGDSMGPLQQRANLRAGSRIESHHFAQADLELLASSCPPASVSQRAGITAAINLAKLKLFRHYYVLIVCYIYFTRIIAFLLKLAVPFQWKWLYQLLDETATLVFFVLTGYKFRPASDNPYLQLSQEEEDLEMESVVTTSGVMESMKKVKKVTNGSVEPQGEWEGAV
UniProt Q8N335: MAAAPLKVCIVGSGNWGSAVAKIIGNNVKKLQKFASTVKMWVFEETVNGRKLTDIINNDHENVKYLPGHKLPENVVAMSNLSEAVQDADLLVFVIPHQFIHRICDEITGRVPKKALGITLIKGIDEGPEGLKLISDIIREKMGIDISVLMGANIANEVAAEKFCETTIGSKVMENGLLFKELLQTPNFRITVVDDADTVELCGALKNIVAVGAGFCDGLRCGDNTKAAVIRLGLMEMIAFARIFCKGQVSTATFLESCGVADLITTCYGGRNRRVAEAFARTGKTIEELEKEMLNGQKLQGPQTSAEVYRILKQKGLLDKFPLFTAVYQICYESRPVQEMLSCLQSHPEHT
UniProt Q04760: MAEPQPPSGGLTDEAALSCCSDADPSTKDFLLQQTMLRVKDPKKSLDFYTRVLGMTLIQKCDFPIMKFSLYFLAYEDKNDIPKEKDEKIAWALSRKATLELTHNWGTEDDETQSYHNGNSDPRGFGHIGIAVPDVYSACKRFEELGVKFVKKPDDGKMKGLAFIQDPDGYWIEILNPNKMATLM
UniProt P63218: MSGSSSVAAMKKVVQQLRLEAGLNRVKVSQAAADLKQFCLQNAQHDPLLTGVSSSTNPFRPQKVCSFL
UniProt P49915: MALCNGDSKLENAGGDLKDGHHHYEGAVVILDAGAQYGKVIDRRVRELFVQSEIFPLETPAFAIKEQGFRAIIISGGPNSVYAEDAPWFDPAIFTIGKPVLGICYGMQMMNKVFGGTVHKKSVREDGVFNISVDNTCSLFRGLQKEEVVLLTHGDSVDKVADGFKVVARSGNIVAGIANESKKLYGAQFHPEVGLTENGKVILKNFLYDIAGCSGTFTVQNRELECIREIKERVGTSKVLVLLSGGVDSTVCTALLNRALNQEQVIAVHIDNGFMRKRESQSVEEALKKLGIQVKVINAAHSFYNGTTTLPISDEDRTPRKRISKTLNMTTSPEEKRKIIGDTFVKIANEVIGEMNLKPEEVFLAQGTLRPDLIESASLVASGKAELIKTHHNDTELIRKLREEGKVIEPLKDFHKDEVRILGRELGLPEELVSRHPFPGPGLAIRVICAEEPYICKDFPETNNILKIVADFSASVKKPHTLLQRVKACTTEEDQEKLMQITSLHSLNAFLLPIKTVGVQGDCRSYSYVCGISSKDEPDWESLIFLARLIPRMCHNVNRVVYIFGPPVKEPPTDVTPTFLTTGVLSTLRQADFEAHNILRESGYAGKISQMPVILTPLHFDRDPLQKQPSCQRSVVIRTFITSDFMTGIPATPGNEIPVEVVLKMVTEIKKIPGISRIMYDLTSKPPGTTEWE
UniProt Q9H3K2: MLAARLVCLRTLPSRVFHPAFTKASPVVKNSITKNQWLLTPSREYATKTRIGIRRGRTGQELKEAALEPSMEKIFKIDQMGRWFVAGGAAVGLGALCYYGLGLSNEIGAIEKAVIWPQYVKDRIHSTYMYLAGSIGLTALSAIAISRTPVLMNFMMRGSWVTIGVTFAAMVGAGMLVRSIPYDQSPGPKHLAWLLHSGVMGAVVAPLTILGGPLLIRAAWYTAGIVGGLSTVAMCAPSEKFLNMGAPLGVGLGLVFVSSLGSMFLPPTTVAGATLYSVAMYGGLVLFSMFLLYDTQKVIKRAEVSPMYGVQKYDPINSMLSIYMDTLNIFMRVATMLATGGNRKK
UniProt P46926: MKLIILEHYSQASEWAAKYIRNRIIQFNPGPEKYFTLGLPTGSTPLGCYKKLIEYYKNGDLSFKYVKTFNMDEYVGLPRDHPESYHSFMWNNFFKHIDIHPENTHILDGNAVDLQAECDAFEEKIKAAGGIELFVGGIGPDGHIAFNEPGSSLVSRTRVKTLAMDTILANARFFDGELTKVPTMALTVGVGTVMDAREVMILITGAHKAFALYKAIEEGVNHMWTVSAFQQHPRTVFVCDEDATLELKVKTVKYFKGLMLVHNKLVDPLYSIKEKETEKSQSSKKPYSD
UniProt Q08378: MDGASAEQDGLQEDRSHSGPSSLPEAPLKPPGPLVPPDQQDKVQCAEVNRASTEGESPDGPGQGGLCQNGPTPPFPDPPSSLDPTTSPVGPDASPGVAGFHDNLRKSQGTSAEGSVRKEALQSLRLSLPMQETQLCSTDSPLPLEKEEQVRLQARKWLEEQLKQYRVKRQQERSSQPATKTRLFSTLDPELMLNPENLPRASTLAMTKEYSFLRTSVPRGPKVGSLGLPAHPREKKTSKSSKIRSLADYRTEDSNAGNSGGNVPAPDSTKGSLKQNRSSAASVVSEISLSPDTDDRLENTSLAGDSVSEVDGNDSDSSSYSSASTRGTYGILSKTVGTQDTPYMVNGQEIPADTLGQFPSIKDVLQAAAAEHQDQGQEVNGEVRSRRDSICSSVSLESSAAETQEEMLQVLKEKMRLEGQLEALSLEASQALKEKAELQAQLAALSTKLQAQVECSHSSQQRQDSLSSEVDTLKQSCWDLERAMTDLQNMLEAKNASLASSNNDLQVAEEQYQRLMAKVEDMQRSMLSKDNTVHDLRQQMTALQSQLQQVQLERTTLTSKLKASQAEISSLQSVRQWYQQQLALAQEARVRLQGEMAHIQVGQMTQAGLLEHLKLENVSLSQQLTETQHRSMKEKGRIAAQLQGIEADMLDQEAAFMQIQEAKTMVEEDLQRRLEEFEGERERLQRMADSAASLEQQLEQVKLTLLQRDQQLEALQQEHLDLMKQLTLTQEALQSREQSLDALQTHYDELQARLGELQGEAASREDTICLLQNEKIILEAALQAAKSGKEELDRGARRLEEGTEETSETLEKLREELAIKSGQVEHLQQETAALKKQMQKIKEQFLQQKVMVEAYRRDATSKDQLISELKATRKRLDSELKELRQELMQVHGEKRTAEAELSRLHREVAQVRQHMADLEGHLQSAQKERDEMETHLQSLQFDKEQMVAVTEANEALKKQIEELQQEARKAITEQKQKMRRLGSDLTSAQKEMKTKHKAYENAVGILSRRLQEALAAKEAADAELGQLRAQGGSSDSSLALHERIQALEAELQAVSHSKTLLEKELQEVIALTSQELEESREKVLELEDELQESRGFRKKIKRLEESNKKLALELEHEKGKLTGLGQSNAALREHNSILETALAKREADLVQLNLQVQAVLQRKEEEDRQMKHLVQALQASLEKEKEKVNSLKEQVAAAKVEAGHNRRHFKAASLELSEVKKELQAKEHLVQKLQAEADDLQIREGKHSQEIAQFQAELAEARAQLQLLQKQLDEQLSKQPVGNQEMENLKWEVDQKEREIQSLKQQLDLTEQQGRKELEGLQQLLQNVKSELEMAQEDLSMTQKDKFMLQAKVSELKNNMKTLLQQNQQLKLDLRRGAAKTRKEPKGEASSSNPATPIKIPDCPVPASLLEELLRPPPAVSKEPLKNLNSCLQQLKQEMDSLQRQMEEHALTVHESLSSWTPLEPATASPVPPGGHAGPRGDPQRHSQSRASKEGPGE
UniProt Q96IJ6: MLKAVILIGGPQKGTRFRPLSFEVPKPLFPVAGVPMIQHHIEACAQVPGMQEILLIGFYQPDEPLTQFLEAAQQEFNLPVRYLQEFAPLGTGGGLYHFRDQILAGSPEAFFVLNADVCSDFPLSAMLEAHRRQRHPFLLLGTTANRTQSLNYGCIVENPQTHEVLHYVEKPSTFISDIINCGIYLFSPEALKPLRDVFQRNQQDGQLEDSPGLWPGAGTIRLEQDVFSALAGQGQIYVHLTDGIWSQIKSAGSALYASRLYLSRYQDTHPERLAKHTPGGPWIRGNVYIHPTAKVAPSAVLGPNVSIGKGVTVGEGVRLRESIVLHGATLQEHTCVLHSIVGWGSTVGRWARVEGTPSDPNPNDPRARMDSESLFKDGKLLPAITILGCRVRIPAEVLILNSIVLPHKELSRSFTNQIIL
UniProt Q49A26: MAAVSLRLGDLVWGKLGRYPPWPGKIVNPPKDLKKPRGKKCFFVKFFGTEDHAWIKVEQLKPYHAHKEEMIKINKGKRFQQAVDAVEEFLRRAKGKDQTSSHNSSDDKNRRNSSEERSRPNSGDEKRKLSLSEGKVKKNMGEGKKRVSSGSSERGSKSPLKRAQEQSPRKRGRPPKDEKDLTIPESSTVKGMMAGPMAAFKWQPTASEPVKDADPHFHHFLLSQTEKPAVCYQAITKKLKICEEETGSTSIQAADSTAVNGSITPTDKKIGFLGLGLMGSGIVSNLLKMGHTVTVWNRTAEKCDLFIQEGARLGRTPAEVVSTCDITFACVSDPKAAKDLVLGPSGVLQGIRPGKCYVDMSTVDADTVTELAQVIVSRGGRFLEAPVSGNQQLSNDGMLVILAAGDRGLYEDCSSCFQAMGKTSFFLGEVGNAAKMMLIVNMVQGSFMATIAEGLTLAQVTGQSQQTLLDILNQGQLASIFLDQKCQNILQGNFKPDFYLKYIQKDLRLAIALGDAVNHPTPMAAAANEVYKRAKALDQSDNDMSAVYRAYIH
UniProt P38435: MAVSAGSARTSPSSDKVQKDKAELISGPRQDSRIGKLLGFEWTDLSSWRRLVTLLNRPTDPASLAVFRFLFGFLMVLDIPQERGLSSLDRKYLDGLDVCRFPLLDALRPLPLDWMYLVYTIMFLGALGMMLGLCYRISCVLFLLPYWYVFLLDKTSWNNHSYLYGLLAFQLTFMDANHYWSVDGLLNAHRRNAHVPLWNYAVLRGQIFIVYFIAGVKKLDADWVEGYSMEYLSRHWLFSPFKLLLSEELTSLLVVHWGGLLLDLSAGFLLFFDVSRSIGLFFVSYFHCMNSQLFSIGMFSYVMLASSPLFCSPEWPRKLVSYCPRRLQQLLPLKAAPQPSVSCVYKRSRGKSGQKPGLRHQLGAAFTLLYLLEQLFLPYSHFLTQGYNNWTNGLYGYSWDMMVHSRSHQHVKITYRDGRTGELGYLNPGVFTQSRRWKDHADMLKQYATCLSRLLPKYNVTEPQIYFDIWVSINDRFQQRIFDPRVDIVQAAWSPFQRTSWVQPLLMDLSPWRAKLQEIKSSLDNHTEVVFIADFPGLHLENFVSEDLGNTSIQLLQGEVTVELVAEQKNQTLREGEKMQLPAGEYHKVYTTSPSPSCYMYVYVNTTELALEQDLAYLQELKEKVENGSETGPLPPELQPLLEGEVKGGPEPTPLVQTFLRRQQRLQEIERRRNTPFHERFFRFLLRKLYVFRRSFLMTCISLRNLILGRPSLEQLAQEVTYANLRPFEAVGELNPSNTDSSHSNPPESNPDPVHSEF

[1] = compound: C/C(=N\NC(=O)C1=CC(=CC=C1)S(=O)(=O)N2CCOCC2)/C3=C(C=CC(=C3)Cl)O
Outline: as §1

[2] = compound: C1=CC(=CC=C1C2=NC3=C(N2)C=C(C=C3)C(=O)N)OC4=CC=C(C=C4)Cl
Outline: as §1

[3] = compound: C1=CC2=C(C=CC(=C2)/C=C\3/C(=O)NC(=NCC4=CC=CS4)S3)N=C1
Outline: as §1

[4] = compound: C1=CC2=NC=CN=C2C=C1/C=C/3\C(=O)NC(=O)S3
Outline: as §1

[5] = compound: C1=CC=C(C=C1)C2=NC(=C(N2)C3=CC=NC=C3)C4=CC(=C(C=C4)Cl)O
Outline: as §1

[6] = compound: C1=CC=C2C(=C1)C3=NNC4=CC=CC(=C43)C2=O
Outline: as §1

[7] = compound: C1CCN(C1)C(=O)NC2=CC=CC(=C2)NC3=NC=C(C(=N3)NCCC4=CN=CN4)Br
Outline: as §1

[8] = compound: C1CN(CCC1(CC2=CC=C(C=C2)Cl)N)C3=NC=NC4=C3C=CN4
Outline: as §1

IRAK-1-4 Inhibitor I = compound: C1COCCN1CCN2C3=CC=CC=C3N=C2NC(=O)C4=CC(=CC=C4)[N+](=O)[O-] [IRAK-1-4 Inhibitor I]
Outline: as §1

ibrutinib = compound: C=CC(=O)N1CCC[C@@H](n2nc(-c3ccc(Oc4ccccc4)cc3)c3c(N)ncnc32)C1 [ibrutinib]
Outline: as §1

[9] = compound: CC(=O)c1cnc2ccc(-c3cc(Cl)c(O)c(Cl)c3)nc2c1N[C@H]1CC[C@H](CN(C)C)CC1
Outline: as §1

ralimetinib = compound: CC(C)(C)Cn1c(N)nc2ccc(-c3[nH]c(C(C)(C)C)nc3-c3ccc(F)cc3)nc21 [ralimetinib]
Outline: as §1

[10] = compound: CC(C)(O)CC(=O)NCCn1ccc2ncnc(Nc3ccc(Oc4cccc(C(F)(F)F)c4)c(Cl)c3)c21
Outline: as §1

[11] = compound: CC(C)C1=C2N=C(C=C(N2N=C1)NCC3=CC=CC=C3)NCCCCCCN
Outline: as §1

[12] = compound: CC1=C(C(CC(=O)N1)C2=CC=C(C=C2)C(F)(F)F)C(=O)NC3=C(C=C4C(=C3)C=NN4)F
Outline: as §1

[13] = compound: CC1=C(C2=C(C=C1)C(=O)C3=CC=CC=C3N2CCCN)C
Outline: as §1

[14] = compound: CC1=C(C=C(C=C1)NC(=O)C2=CC(=CC=C2)C(C)(C)C#N)NC3=CC4=C(C=C3)N=CN(C4=O)C
Outline: as §1

[15] = compound: CC1=C(C=C(C=C1)NC(=O)C2=CC(=CC=C2)N(C)C)NC(=O)C3=CC=C(C=C3)O
Outline: as §1

[16] = compound: CC1=CC=C(C=C1)SC2=C3C=C(SC3=CN=C2)C(=O)N
Outline: as §1

Target | log2 fold change (erlotinib) | log2 fold change [1] | log2 fold change [2] | log2 fold change [3] | log2 fold change [4] | log2 fold change [5] | log2 fold change [6] | log2 fold change [7] | log2 fold change [8] | log2 fold change (IRAK-1-4 Inhibitor I) | log2 fold change (ibrutinib) | log2 fold change [9] | log2 fold change (ralimetinib) | log2 fold change [10] | log2 fold change [11] | log2 fold change [12] | log2 fold change [13] | log2 fold change [14] | log2 fold change [15] | log2 fold change [16]
GINS2 (UniProt Q9Y248) | inactive: 0.048 | inactive: 0.144 | inactive: -0.034 | inactive: 0.029 | inactive: -0.024 | inactive: -0.008 | inactive: 0.012 | inactive: -0.011 | inactive: 0.04 | inactive: 0.025 | inactive: 0.093 | inactive: -0.014 | inactive: -0.02 | inactive: -0.04 | inactive: 0.019 | inactive: -0.031 | inactive: 0.046 | inactive: 0.026 | inactive: 0.015 | inactive: 0.049
GINS1 (UniProt Q14691) | inactive: -0.048 | inactive: 0.076 | inactive: 0.031 | inactive: 0.029 | inactive: 0.044 | inactive: -0.005 | inactive: -0.004 | inactive: -0.037 | inactive: 0.012 | inactive: 0 | inactive: -0.027 | inactive: -0.002 | inactive: 0.01 | inactive: 0.034 | inactive: -0.024 | inactive: 0.027 | inactive: 0.002 | inactive: 0.024 | inactive: -0.009 | inactive: 0.018
GPR107 isoform 2 (UniProt Q5VW38) | inactive: 0.008 | inactive: -0.07 | inactive: 0.016 | inactive: -0.008 | inactive: -0.054 | inactive: 0.045 | inactive: 0 | inactive: -0.021 | inactive: 0.008 | inactive: 0.039 | inactive: 0.05 | inactive: -0.017 | inactive: -0.072 | inactive: -0.12 | inactive: -0.005 | inactive: -0.003 | inactive: -0.089 | inactive: 0 | inactive: 0.036 | inactive: -0.017
GPD1L (UniProt Q8N335) | inactive: 0.036 | inactive: -0.021 | inactive: -0.036 | inactive: 0.004 | inactive: 0.076 | inactive: 0.026 | inactive: -0.004 | inactive: 0.062 | inactive: -0.013 | inactive: -0.05 | inactive: -0.013 | inactive: 0.048 | inactive: 0.049 | inactive: -0.007 | inactive: -0.015 | inactive: -0.007 | inactive: 0.015 | inactive: -0.003 | inactive: 0.017 | inactive: -0.028
GLO1 (UniProt Q04760) | inactive: -0.002 | inactive: 0.03 | inactive: 0.021 | inactive: -0.03 | inactive: 0.013 | inactive: 0.021 | inactive: 0.019 | inactive: 0.016 | inactive: 0.012 | inactive: 0.013 | inactive: -0.033 | inactive: 0.011 | inactive: -0.03 | inactive: -0.027 | inactive: -0.002 | inactive: -0.03 | inactive: -0.033 | inactive: 0.022 | inactive: -0.012 | inactive: -0.003
GNG5 (UniProt P63218) | inactive: 0.148 | inactive: -0.002 | inactive: 0 | inactive: 0.004 | inactive: -0.015 | inactive: -0.056 | inactive: 0.007 | inactive: 0.026 | inactive: 0.042 | inactive: -0.213 | inactive: -0.033 | inactive: -0.023 | inactive: 0.135 | inactive: -0.056 | inactive: 0.016 | inactive: 0.046 | inactive: -0.037 | inactive: 0.156 | inactive: -0.228 | inactive: 0.07
GNL2 (UniProt Q13823) | inactive: 0.026 | inactive: 0.007 | inactive: -0.071 | inactive: 0.015 | inactive: 0.02 | inactive: 0.04 | inactive: 0.04 | inactive: 0.004 | inactive: -0.015 | inactive: 0.046 | inactive: 0.012 | inactive: 0.032 | inactive: -0.015 | inactive: -0.018 | inactive: -0.002 | inactive: 0.019 | inactive: -0.004 | inactive: 0.013 | inactive: -0.01 | inactive: 0.01
GMPS (UniProt P49915) | inactive: 0.014 | inactive: -0.025 | inactive: 0.004 | inactive: 0.029 | inactive: -0.013 | inactive: -0.007 | inactive: -0.009 | inactive: -0.003 | inactive: 0.017 | inactive: -0.004 | inactive: -0.034 | inactive: 0.003 | inactive: 0.009 | inactive: 0.013 | inactive: 0.006 | inactive: -0.032 | inactive: 0.025 | inactive: -0.024 | inactive: 0.015 | inactive: 0.02
GHITM (UniProt Q9H3K2) | inactive: 0.011 | inactive: -0.064 | inactive: -0.047 | inactive: 0.02 | inactive: 0.012 | inactive: -0.004 | inactive: -0.021 | inactive: 0.005 | inactive: 0.014 | inactive: 0.013 | inactive: -0.009 | inactive: 0.015 | inactive: -0.008 | inactive: -0.028 | inactive: 0.012 | inactive: -0.016 | inactive: -0.006 | inactive: 0.053 | inactive: -0.004 | inactive: -0.003
GNPDA1 (UniProt P46926) | inactive: -0.021 | inactive: 0.013 | inactive: -0.01 | inactive: -0.006 | inactive: 0.002 | inactive: 0.014 | inactive: 0.027 | inactive: 0.016 | inactive: -0.03 | inactive: 0.013 | inactive: 0.024 | inactive: 0 | inactive: 0.026 | inactive: -0.033 | inactive: -0.03 | inactive: 0.007 | inactive: 0.011 | inactive: -0.023 | inactive: -0.007 | inactive: -0.016
GOLGA3 (UniProt Q08378) | inactive: 0.004 | inactive: 0.032 | inactive: 0.03 | inactive: 0.022 | inactive: -0.007 | inactive: -0.004 | inactive: 0.007 | inactive: 0.012 | inactive: 0.019 | inactive: 0.007 | inactive: 0.033 | inactive: 0 | inactive: 0.007 | inactive: -0.024 | inactive: -0.016 | inactive: 0.007 | inactive: -0.004 | inactive: 0.005 | inactive: -0.002 | inactive: -0.011
GMPPA (UniProt Q96IJ6) | inactive: -0.001 | inactive: 0.021 | inactive: -0.025 | inactive: 0.012 | inactive: -0.04 | inactive: 0.029 | inactive: -0.056 | inactive: 0.043 | inactive: -0.01 | inactive: 0.008 | inactive: 0.021 | inactive: -0.009 | inactive: 0.014 | inactive: 0.003 | inactive: 0.008 | inactive: -0.018 | inactive: -0.03 | inactive: 0.024 | inactive: 0.014 | inactive: -0.017
GIT1 (UniProt Q9Y2X7) | inactive: -0.003 | inactive: 0.011 | inactive: -0.039 | inactive: 0.054 | inactive: -0.014 | inactive: -0.014 | inactive: -0.009 | inactive: 0 | inactive: -0.011 | inactive: 0.017 | inactive: 0.075 | inactive: -0.002 | inactive: -0.042 | inactive: 0.033 | inactive: -0.004 | inactive: -0.074 | inactive: -0.012 | inactive: 0.044 | inactive: -0.007 | inactive: 0.024
GLYR1 (UniProt Q49A26) | inactive: 0.025 | inactive: 0.061 | inactive: -0.018 | inactive: 0.021 | inactive: 0.041 | inactive: 0.029 | inactive: -0.01 | inactive: 0.11 | inactive: 0.035 | inactive: 0.006 | inactive: 0.113 | inactive: 0.017 | inactive: 0.038 | inactive: -0.15 | inactive: 0.033 | inactive: 0.07 | active: -0.339 | inactive: 0.126 | inactive: 0.106 | inactive: 0.032
GGCX (UniProt P38435) | inactive: 0.001 | inactive: -0.064 | inactive: 0.015 | inactive: -0.061 | inactive: -0.042 | inactive: 0.093 | inactive: -0.096 | inactive: 0.027 | inactive: 0.081 | inactive: -0.026 | inactive: -0.063 | inactive: -0.002 | inactive: 0.072 | inactive: -0.088 | inactive: -0.097 | inactive: 0.037 | inactive: 0.033 | inactive: -0.031 | inactive: 0.095 | inactive: -0.045

Single records, from the list above. Values in the order: log2 fold change (erlotinib)	log2 fold change [1]	log2 fold change [2]	log2 fold change [3]	log2 fold change [4]	log2 fold change [5]	log2 fold change [6]	log2 fold change [7]	log2 fold change [8]	log2 fold change (IRAK-1-4 Inhibitor I)	log2 fold change (ibrutinib)	log2 fold change [9]	log2 fold change (ralimetinib)	log2 fold change [10]	log2 fold change [11]	log2 fold change [12]	log2 fold change [13]	log2 fold change [14]	log2 fold change [15]	log2 fold change [16]
GINS2 (UniProt Q9Y248) in the list: inactive: 0.048	inactive: 0.144	inactive: -0.034	inactive: 0.029	inactive: -0.024	inactive: -0.008	inactive: 0.012	inactive: -0.011	inactive: 0.04	inactive: 0.025	inactive: 0.093	inactive: -0.014	inactive: -0.02	inactive: -0.04	inactive: 0.019	inactive: -0.031	inactive: 0.046	inactive: 0.026	inactive: 0.015	inactive: 0.049
GLYR1 (UniProt Q49A26) in the list: inactive: 0.025	inactive: 0.061	inactive: -0.018	inactive: 0.021	inactive: 0.041	inactive: 0.029	inactive: -0.01	inactive: 0.11	inactive: 0.035	inactive: 0.006	inactive: 0.113	inactive: 0.017	inactive: 0.038	inactive: -0.15	inactive: 0.033	inactive: 0.07	active: -0.339	inactive: 0.126	inactive: 0.106	inactive: 0.032

Reference: the supplement of paper PMC10849652
